Data: patent publication US20170000132A1, “BENZOXABOROLE FUNGICIDES” (SYNGENTA PARTICIPATIONS AG, priority 2013, published 2017)
Some of these results come from one statement about several compounds together. At least one compound was matched to its structure with a doubt left.

Key:
Pythium ultimum = Pythium ultimum / liquid culture (seedling damping off); format: cell-based; settings: 200 ppm, potato dextrose broth, 2-3 days after application
Sclerotinia sclerotiorum = Sclerotinia sclerotiorum / liquid culture (white mold); format: cell-based; settings: 200 ppm, PDB, after 72 hrs
[1] = test system: Puccinia recondita f. sp. Tritici; experiment: Puccinia recondita f. sp. tritici / wheat / leaf disc preventative (brown rust); format: in vivo; settings: 200 ppm, wheat leaf segments cv. Kanzler, compared to untreated control
Gaeumannomyces graminis = Gaeumannomyces graminis / liquid culture (take-all of cereals); format: cell-based; settings: 200 ppm, PDB, 4-5 days after application
[2] = test system: Monographella nivalis (Microdochium nivale); experiment: Monographella nivalis / liquid culture (foot rot cereals); format: cell-based; settings: 200 ppm, PDB, 4-5 days after application
[3] = test system: Glomerella lagenarium (Colletotrichum lagenarium); experiment: Glomerella lagenarium / liquid culture (anthracnose); format: cell-based; settings: 200 ppm, PDB, 3-4 days after application
[4] = test system: Botrvotinia fuckeliana (Botrytis cinerea); experiment: Botryotinia fuckeliana (Botrytis cinerea) / liquid culture (gray mould); format: cell-based; settings: 200 ppm, Vogels broth, 3-4 days after application
[5] = test system: Mycosphaerella arachidis (Cercospora arachidicola); experiment: Mycosphaerella arachidis / liquid culture (early leaf spot); format: cell-based; settings: 200 ppm, PDB, 4-5 days after application
[6] = test system: Mycosphaerella graminicola (Septoria tritici); experiment: Mycosphaerella graminicola / liquid culture (Septoria blotch); format: cell-based; settings: 200 ppm, PDB, 4-5 days after application
[7] = test system: Thanatephorus cucumeris (Rhizoctonia solani); experiment: Thanatephorus cucumeris / liquid culture (foot rot, damping-off); format: cell-based; settings: 200 ppm, PDB, 3-4 days after application

COC(=O)NN=Cc1cc2c(cc1F)COB2O [Compound 454]
at least 80%: disease control (inhibition of growth, photometric) (Pythium ultimum) | disease control (inhibition of growth, photometric at 620 nm) (Sclerotinia sclerotiorum)

Cc1cc(C=NOCc2ccccc2F)c2c(c1)COB2O [Compound 449]
at least 80%: disease control [1] | disease control (inhibition of growth, photometric) (Gaeumannomyces graminis) | disease control (inhibition of growth, photometric) [2] | disease control (inhibition of growth, photometric) (Pythium ultimum)

O=C(NN=Cc1cc2c(cc1F)COB2O)C1CC1 (single isomer, unassigned) [Compound 101]
at least 80%: disease control (inhibition of growth, photometric) [3] | disease control (inhibition of growth, photometric) (Pythium ultimum) | disease control (inhibition of growth, photometric at 620 nm) (Sclerotinia sclerotiorum)

CCON=Cc1cc2c(cc1F)COB2O (single isomer, unassigned) [Compound 139]
at least 80%: disease control (inhibition of growth, photometric) [4] | disease control (inhibition of growth, photometric) [3] | disease control (inhibition of growth, photometric) (Gaeumannomyces graminis) | disease control (inhibition of growth, photometric) [2] | disease control (inhibition of growth, photometric) [5] | disease control (inhibition of growth, photometric) (Pythium ultimum) | disease control (inhibition of growth, photometric at 620 nm) (Sclerotinia sclerotiorum) | disease control (inhibition of growth, photometric) [6]

CC(Cl)=CCON=Cc1cc2c(cc1F)COB2O [Compound 130]
at least 80%: disease control [1] | disease control (inhibition of growth, photometric) [4] | disease control (inhibition of growth, photometric) [3] | disease control (inhibition of growth, photometric) (Gaeumannomyces graminis) | disease control (inhibition of growth, photometric) [2] | disease control (inhibition of growth, photometric) [5] | disease control (inhibition of growth, photometric) (Pythium ultimum) | disease control (inhibition of growth, photometric) [6]

C=CCON=Cc1cc2c(cc1F)COB2O (single isomer, unassigned) [Compound 141]
at least 80%: disease control (inhibition of growth, photometric) [4] | disease control (inhibition of growth, photometric) [3] | disease control (inhibition of growth, photometric) (Gaeumannomyces graminis) | disease control (inhibition of growth, photometric) [2] | disease control (inhibition of growth, photometric) [5] | disease control (inhibition of growth, photometric) (Pythium ultimum) | disease control (inhibition of growth, photometric at 620 nm) (Sclerotinia sclerotiorum) | disease control (inhibition of growth, photometric) [6]

C=C(Cl)CON=Cc1cc2c(cc1Cl)COB2O (single isomer, unassigned) [Compound 48]
at least 80%: disease control [1] | disease control (inhibition of growth, photometric) [3] | disease control (inhibition of growth, photometric) (Gaeumannomyces graminis) | disease control (inhibition of growth, photometric) [2] | disease control (inhibition of growth, photometric) [5] | disease control (inhibition of growth, photometric) (Pythium ultimum) | disease control (inhibition of growth, photometric) [7] | disease control (inhibition of growth, photometric) [6]

CON=Cc1cc2c(cc1Cl)COB2O (single isomer, unassigned) [Compound 71]
at least 80%: disease control [1] | disease control (inhibition of growth, photometric) [3] | disease control (inhibition of growth, photometric) (Gaeumannomyces graminis) | disease control (inhibition of growth, photometric) [2] | disease control (inhibition of growth, photometric) [5] | disease control (inhibition of growth, photometric) (Pythium ultimum) | disease control (inhibition of growth, photometric) [7] | disease control (inhibition of growth, photometric) [6]

OB1OCc2cc(C=NNc3ccc(C(F)(F)F)cc3)ccc21 (single isomer, unassigned) [Compound 387]
at least 80%: disease control (inhibition of growth, photometric) [4] | disease control (inhibition of growth, photometric) [3] | disease control (inhibition of growth, photometric) (Gaeumannomyces graminis) | disease control (inhibition of growth, photometric) [2] | disease control (inhibition of growth, photometric) [5] | disease control (inhibition of growth, photometric) (Pythium ultimum) | disease control (inhibition of growth, photometric) [7] | disease control (inhibition of growth, photometric at 620 nm) (Sclerotinia sclerotiorum) | disease control (inhibition of growth, photometric) [6]

OB1OCc2cc(C=NNc3c(Cl)cccc3Cl)ccc21 (single isomer, unassigned) [Compound 388]
at least 80%: disease control (inhibition of growth, photometric) [4] | disease control (inhibition of growth, photometric) [3] | disease control (inhibition of growth, photometric) [2] | disease control (inhibition of growth, photometric) [5] | disease control (inhibition of growth, photometric) (Pythium ultimum) | disease control (inhibition of growth, photometric at 620 nm) (Sclerotinia sclerotiorum) | disease control (inhibition of growth, photometric) [6]

COC(=O)NN=Cc1cc2c(cc1Cl)COB2O [Compound 453]
at least 80%: disease control [1] | disease control (inhibition of growth, photometric) [3] | disease control (inhibition of growth, photometric) [2] | disease control (inhibition of growth, photometric) (Pythium ultimum)

OB1OCc2cc(Cl)cc(C=NNc3ccnc(Cl)c3)c21 (single isomer, unassigned) [Compound 176]
at least 80%: disease control (inhibition of growth, photometric) [3] | disease control (inhibition of growth, photometric) (Gaeumannomyces graminis) | disease control (inhibition of growth, photometric) [2] | disease control (inhibition of growth, photometric) [5] | disease control (inhibition of growth, photometric) (Pythium ultimum) | disease control (inhibition of growth, photometric at 620 nm) (Sclerotinia sclerotiorum)

CCON=Cc1ccc2c(c1)COB2O (single isomer, unassigned) [Compound 413]
at least 80%: disease control (inhibition of growth, photometric) [3] | disease control (inhibition of growth, photometric) (Gaeumannomyces graminis) | disease control (inhibition of growth, photometric) [2] | disease control (inhibition of growth, photometric) [5] | disease control (inhibition of growth, photometric) (Pythium ultimum) | disease control (inhibition of growth, photometric at 620 nm) (Sclerotinia sclerotiorum) | disease control (inhibition of growth, photometric) [6]

OB1OCc2cc(F)c(C=NNc3ccc(F)cc3F)cc21 (single isomer, unassigned) [Compound 89]
at least 80%: disease control (inhibition of growth, photometric) [4] | disease control (inhibition of growth, photometric) [3] | disease control (inhibition of growth, photometric) (Gaeumannomyces graminis) | disease control (inhibition of growth, photometric) [2] | disease control (inhibition of growth, photometric) [5] | disease control (inhibition of growth, photometric) (Pythium ultimum) | disease control (inhibition of growth, photometric) [7] | disease control (inhibition of growth, photometric) [6]

CCON=Cc1cc2c(cc1Cl)COB2O (single isomer, unassigned) [Compound 57]
at least 80%: disease control [1] | disease control (inhibition of growth, photometric) [3] | disease control (inhibition of growth, photometric) (Gaeumannomyces graminis) | disease control (inhibition of growth, photometric) [2] | disease control (inhibition of growth, photometric) [5] | disease control (inhibition of growth, photometric) (Pythium ultimum) | disease control (inhibition of growth, photometric) [7] | disease control (inhibition of growth, photometric) [6]

ON=Cc1cc(Cl)cc2c1B(O)OC2 (single isomer, unassigned) [Compound 222]
at least 80%: disease control [1] | disease control (inhibition of growth, photometric) (Gaeumannomyces graminis) | disease control (inhibition of growth, photometric) [2] | disease control (inhibition of growth, photometric) [5] | disease control (inhibition of growth, photometric) (Pythium ultimum) | disease control (inhibition of growth, photometric) [6]

C=C(Cl)CON=Cc1cc2c(cc1F)COB2O (single isomer, unassigned) [Compound 128]
at least 80%: disease control [1] | disease control (inhibition of growth, photometric) [4] | disease control (inhibition of growth, photometric) [3] | disease control (inhibition of growth, photometric) (Gaeumannomyces graminis) | disease control (inhibition of growth, photometric) [2] | disease control (inhibition of growth, photometric) [5] | disease control (inhibition of growth, photometric) (Pythium ultimum) | disease control (inhibition of growth, photometric) [6]

CON=Cc1cc2c(cc1F)COB2O (single isomer, unassigned) [Compound 140]
at least 80%: disease control (inhibition of growth, photometric) [4] | disease control (inhibition of growth, photometric) [3] | disease control (inhibition of growth, photometric) (Gaeumannomyces graminis) | disease control (inhibition of growth, photometric) [2] | disease control (inhibition of growth, photometric) [5] | disease control (inhibition of growth, photometric) (Pythium ultimum) | disease control (inhibition of growth, photometric at 620 nm) (Sclerotinia sclerotiorum) | disease control (inhibition of growth, photometric) [6]

OB1OCc2cc(C=NNc3cc(Cl)cc(Cl)c3)ccc21 (single isomer, unassigned) [Compound 378]
at least 80%: disease control (inhibition of growth, photometric) [4] | disease control (inhibition of growth, photometric) [3] | disease control (inhibition of growth, photometric) (Gaeumannomyces graminis) | disease control (inhibition of growth, photometric) [2] | disease control (inhibition of growth, photometric) [5] | disease control (inhibition of growth, photometric) [7] | disease control (inhibition of growth, photometric) [6]

OB1OCc2cc(F)c(C=NNc3ccc(F)c(C(F)(F)F)c3)cc21 (single isomer, unassigned) [Compound 102]
at least 80%: disease control (inhibition of growth, photometric) [3] | disease control (inhibition of growth, photometric) (Gaeumannomyces graminis) | disease control (inhibition of growth, photometric) [2] | disease control (inhibition of growth, photometric) (Pythium ultimum) | disease control (inhibition of growth, photometric at 620 nm) (Sclerotinia sclerotiorum)

CCCCCCCCCCCCON=Cc1cc(F)cc2c1B(O)OC2 (single isomer, unassigned) [Compound 284]
at least 80%: disease control [1]
